Results are given in words; binding and its absence hold for the method and conditions named. For some of these results: Binding seen in cells or lysates may run through a third protein. Some results given as binding are weak or reduced against the parent protein; the word gives no strength.

The chains behind the UniProt entries cited, without tags or fusion partners. Where a name states a change or a piece, a line headed by the entry shows the natural chain unless it says otherwise. A line that says so, or that is headed by a name, gives the form on record, which may keep a tag or linker. Residues count along the entry.
DNAX-activating protein of 12 kDa (DAP12) wt, overexpressed in HEK293 cells (O43914, residues 22-113): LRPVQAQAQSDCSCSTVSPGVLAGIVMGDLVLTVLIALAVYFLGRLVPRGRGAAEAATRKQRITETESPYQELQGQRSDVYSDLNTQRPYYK
DAP12 D50A mutant, overexpressed in HEK293 cells (O43914, form named): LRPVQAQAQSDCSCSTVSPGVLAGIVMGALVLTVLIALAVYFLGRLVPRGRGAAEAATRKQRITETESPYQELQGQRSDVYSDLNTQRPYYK

Assay [1] has as its target T1, Retention in ER sorting receptor 1 (RER1) in HEK293 cells (human (endogenous in HEK293)) (UniProt O15258).
T1 sequence: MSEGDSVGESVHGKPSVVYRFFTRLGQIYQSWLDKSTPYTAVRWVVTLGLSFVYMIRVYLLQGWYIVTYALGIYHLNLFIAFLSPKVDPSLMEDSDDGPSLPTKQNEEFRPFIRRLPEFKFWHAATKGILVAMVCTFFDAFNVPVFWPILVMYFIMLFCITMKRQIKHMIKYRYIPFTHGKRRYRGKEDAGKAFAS
The assay can be described thus: co-IP; HEK293 cells transiently expressing DAP12 wt or DAP12 D50A with or without TREM2 (Fig. 5A); membrane lysates in 1% n-dodecyl-β-d-maltoside, 5 µg antibody 4 h at RT, Sepharose Protein G beads; western immunoblot.

The target in assay [2] is DAP12, endogenous in macrophage-like differentiated THP-1 cells (human (endogenous in THP-1)) (UniProt O43914). The assay can be described thus: condition: only under reducing conditions (DTT, 100 mM); reducing SDS-PAGE and western immunoblotting; membranes of differentiated THP-1 cells; SDS sample buffer with DTT (100 mM), 5 min 95 °C.
Assay [3] addresses T2, RER1, endogenous in macrophage-like differentiated THP-1 cells (human (endogenous in THP-1)) (UniProt O15258).
T2 sequence: T1 sequence
The assay can be described thus: co-IP; macrophage-like differentiated THP-1 wt and TREM2 ko cells, endogenous proteins (Fig. 5B and C; anti-RER1 antibody used in the IP in C); membrane lysates in 1% n-dodecyl-β-d-maltoside, Sepharose Protein G beads; western immunoblot. (A western blot detects proteins with antibodies after separation by electrophoresis.)

Take “DAP12 D50A mutant, overexpressed in HEK293 cells (from UniProt O43914 22-113)”: the binding entry in assay [1] is listed as “no binding”.
For the substance “DAP12, endogenous in macrophage-like differentiated THP-1 cells (from UniProt O43914 22-113)”, the results for the binding result in assay [2] and in assay [3] were “no binding” and “binds”, respectively.
For “DNAX-activating protein of 12 kDa (DAP12) wt, overexpressed in HEK293 cells (from UniProt O43914 22-113)”, the binding entry in assay [1] is “binds”.

Source of the values: publication PMC11335228.
